# The shares of active, inactive and inconclusive entries below differ from those in the screen. Where the call is inconclusive, the potency comes from a doubtful curve fit. Active and inactive are the calls of the source. Calls follow the shape of the dose curve; as a rule, active = well fitted cell-killing curve with a large enough effect; inconclusive = small, poorly fitted or top-dose-only effect, or effect the other way; inactive = flat fitted curve, though single readings scatter.
# Test: Cell viability assay in S16 Pmp22-HiBiT cells - Confirmatory screen
# Conditions: S16 Schwann Pmp22-HiBiT viability, CellTiter-Glo, 24 h; series mostly up to 27.9 µM
# Description: Assay Provider: Jim Inglese Ph.D. National Center for Advancing Translational Science, National Institutes of Health, Rockville, MD CMT is a heterogeneous group of neurological disorders that affect approximately 1 in 2,500 people. In particular, the most common form of CMT, CMT1A is genetically linked to the duplication of the PMP22 gene which leads to Schwann cell overexpression, thus manifesting itself as a typical case of dose-sensitive diseases. To identify small molecule compounds that can mediate the expression of PMP22 we developed a phenotypic assay screening strategy by utilizing genome editing techniques to construct Schwann cell lines containing novel reporter technology to monitor the transcriptional or translational regulation of PMP22. For high sensitivity we use a bioluminescent reporter system embedded in the 3' UTR of the PMP22 gene (S16(c9) Pmp22-F2sN) to identify compounds that inhibit gene expression. […] We can further discriminate the effect of all transcriptionally active molecules on PMP22 translation or stability with an assay that incorporates a short NLuc peptide (HiBiT) at the C-terminus of expressed PMP22 (S16(f8) PMP22-HiBiT) allowing alpha complementation and luminescence detection of membrane-associated PMP22 protein. These assays were screened against the NCATS Sytravon Library Collection. Miniaturization of these assays to 1536-well plate format for quantitative high throughput screening (qHTS) yielded rich data sets immediately from the qHTS assay (S16(c9) Pmp22-F2sN), when compared with data from a cell viability assay (Cell TiterGlo) to identify compounds that decreased the output signals through cellular toxicity to streamline the selection process of actives for subsequent characterization using the HiBiT assay (S16(f8) PMP22-HiBiT).
# Cell viability assay in S16 Pmp22-HiBiT cells PROTOCOL TABLE (format as described by Inglese J, Shamu CE and Guy RK. 2007) SEQUENCE No. (e.g., 1, 2, 3, etc.); PARAMETER (e.g., Cells, Incubation, Reagent, etc.); VALUE and DESCRIPTION. 1. Cells. Add 500-1,000 cells in 4 uL in growth media (DMEM High Glucose, No Phenol Red media + 10% heat-inactivated FBS + 1% Pen/Strep supplemented media) per well into Greiner 1536-well white/solid bottom high base, TC-treated plates. 2. Compounds. Library compounds and controls added at 23nL per well, transferred by Pin Tool. 3. Incubation. Incubate plates at 37C, 5% CO2, 95% RH for 24 h. 4. Reagent. Add 3uL CellTiter-Glo per well of Greiner 1536-well plates. 5. Incubation. Incubate plates at room temperature for 15 min., protect from light. 6. Detector. Luminescence measured using CCD-based camera (Viewlux). NOTES (numbers refer to Sequence numbers above; values are from representative experiments) 6. Luminescence Read: Clear filter; Exposure = 1 sec, Gain = High, Speed = Slow, Binning = 2X REFERENCES: 1. Inglese J, Shamu CE and Guy RK, Reporting data from high throughput screening of small molecule libraries, Nature Chemical Biology, 2007, 3(8): 438-441. doi.org/10.1038/nchembio0807-438 2. Yasgar A, Shinn P, Jadhav A, Auld DS, Michael S, Zheng W, Austin CP, Inglese J and Simeonov A, Compound Management for Quantitative High-Throughput Screening. J. Assoc. Lab. Auto., 2008, 13: 79-89. doi: 10.1016/j.jala.2007.12.004
row,SMILES,Potency
1,Cc1ccc(C)c(NC(=O)Cn2c(=O)n(Cc3ccc4c(c3)OCO4)c(=O)c3ccc(C(=O)NC4CCCCC4)cc32)c1,inactive
2,COC(=O)c1c(-c2ccc(Cl)cc2)noc1N1CCN(c2ccc(F)cc2)CC1,"inconclusive: 12.9 µM [rising, partial curve]"
3,Cc1ccc(S(=O)(=O)c2nnn3c2nc(NC2CCCCCC2)c2sccc23)cc1C,inactive
4,COc1ccccc1NC(=O)Cn1c(=O)n(-c2cccc(Cl)c2)c(=O)c2sc3ccccc3c21,active: 12.9 µM
5,COC(=O)c1c(-c2ccc(Cl)cc2)noc1N1CCN(c2cc(C)ccc2C)CC1,"inconclusive: 22.9 µM [cytotoxic, single point]"
6,Cc1ccc(NC(=O)CSc2nc3ccc(NC(=O)COc4ccc(C)cc4)cc3s2)cc1,"inconclusive: 11.5 µM [cytotoxic, partial curve]"
7,Cc1ccc(CS(=O)(=O)c2ncc(Cl)c(C(=O)Nc3nc4ccc(F)cc4s3)n2)cc1,"inconclusive: 22.9 µM [cytotoxic, single point]"
8,COc1ccc(Cl)cc1NC(=O)CCCS(=O)(=O)c1nc(-c2ccc(OC)c(OC)c2)cc(C(F)(F)F)n1,active: 6.45 µM
9,CCc1ccc(OCC(=O)Nc2cc3oc4ccccc4c3cc2OC)cc1,"inconclusive: 12.9 µM [cytotoxic, partial curve]"
10,COc1ccc(Nc2nc3c(S(=O)(=O)c4ccccc4)nnn3c3ccc(Cl)cc23)cc1,"inconclusive: 10.2 µM [cytotoxic, partial curve]"
11,CCOC(=O)c1ccc(N2C(=O)c3[nH]nc(-c4ccc(C)cc4)c3C2c2ccc(O)c(OCC)c2)cc1 (stereo not given),"inconclusive: 9.12 µM [cytotoxic, partial curve, poor fit]"
12,Cn1c(=O)oc2cc(S(=O)(=O)N3CCCC(C(=O)N4CCN(c5ccc(Cl)cc5)CC4)C3)ccc21 (stereo not given),"inconclusive: 0.646 µM [cytotoxic, full curve]"
13,CCOC(=O)c1c(NC(=O)c2nc(S(C)(=O)=O)ncc2Cl)sc(C(C)=O)c1C,active: 4.57 µM
14,CCCCS(=O)(=O)c1nc(-c2ccc(Br)cc2)cc(-c2ccccc2)c1C#N,"inconclusive: 20.4 µM [cytotoxic, single point]"
15,CCC(Sc1nc2ccccc2c2nc(-c3ccccc3)nn12)C(=O)Nc1cccc(OC)c1 (stereo not given),inactive
16,Cc1cccc(Nc2c3c(nc4nncn24)CCC3)c1C,"inconclusive: 0.0229 µM [cytotoxic, full curve]"
17,CCc1ccc(C(=O)c2cn(CC(=O)Nc3cc(OC)cc(OC)c3)c3ccc(CC)cc3c2=O)cc1,"inconclusive: 18.2 µM [cytotoxic, single point]"
18,O=C(CSc1nc2c([nH]c3ccccc32)c(=O)n1-c1cccc(Cl)c1)c1ccccc1,"inconclusive: 12.9 µM [cytotoxic, partial curve, poor fit]"
19,Cc1ccc(NC(=O)N2CCc3cc(S(=O)(=O)N4CCC(C)CC4)ccc32)cc1F,inactive
20,CCN(CC)c1ccc(NC(=O)C2COc3ccc(OC)cc3C2)c(C)c1 (stereo not given),inactive

row,SMILES,Potency
1,CCS(=O)(=O)c1ncc(Cl)c(C(=O)Nc2c(C(=O)c3ccc(C)cc3)oc3ccccc23)n1,inactive
2,O=C(CCS(=O)(=O)c1nc(-c2cccs2)cc(C(F)(F)F)n1)Nc1ccc(OC(F)(F)F)cc1,inactive
3,COc1ccccc1-c1cc(C(F)(F)F)nc(S(=O)(=O)CCCC(=O)Nc2ccc(F)cc2F)n1,"inconclusive: 8.13 µM [cytotoxic, partial curve, poor fit]"
4,Cc1cc(C)c(NC(=O)Cn2c(=O)n(Cc3ccco3)c(=O)c3ccc(C(=O)NC4CCCC4)cc32)c(C)c1,inactive
5,Cc1ccc(C(=O)Nc2ccc(S(=O)(=O)N3CCC(c4nc5ccccc5s4)CC3)cc2)cc1,"inconclusive: 9.12 µM [cytotoxic, partial curve]"
6,O=C(Cn1c(-c2cccs2)cc2ccccc21)NCCCN1CCN(c2ccc(F)cc2)CC1,inactive
7,CCN(CC)CCCNC(=O)CSc1c2c(nc3cc(Cl)ccc13)CCCC2,"inconclusive: 22.9 µM [cytotoxic, single point]"
8,Cc1ccc(C)c(NC(=O)Cn2c(=O)n(Cc3ccccc3)c(=O)c3oc4ccccc4c32)c1,"inconclusive: 18.2 µM [cytotoxic, partial curve]"
9,COc1ccc(CCNC(=O)Cn2c(-c3cccs3)cc3cc(F)ccc32)cc1OC,"inconclusive: 4.07 µM [cytotoxic, partial curve]"
10,COCCCNC(=O)c1ccc(-n2c(-c3ccccc3)cc3c2CCC(C)C3)cc1 (stereo not given),inactive
11,COc1ccc(-c2noc(CSc3nnc(-c4ccncc4)n3-c3ccc(C)cc3)n2)cc1,"inconclusive: 1.62 µM [cytotoxic, partial curve]"
12,O=C(c1ccc(CS(=O)c2ccccc2Cl)o1)N1CCN(c2cccc(C(F)(F)F)c2)CC1 (stereo not given),"inconclusive: 14.5 µM [cytotoxic, partial curve, poor fit]"
13,COC(=O)c1c(-c2ccc(Cl)cc2)noc1N1CCN(c2ccccc2OC)CC1,"inconclusive: 22.9 µM [cytotoxic, single point]"
14,O=C(CCS(=O)(=O)c1nc(-c2cccs2)cc(C(F)(F)F)n1)Nc1ccc(Br)cc1,"inconclusive: 20.4 µM [cytotoxic, single point]"
15,COc1cccc(-n2c(SCC(=O)c3ccc(Cl)cc3)nc3c([nH]c4ccccc43)c2=O)c1,active: 10.2 µM
16,COc1ccc(NC(=O)Cn2c(=O)n(CCC(=O)NCc3ccccc3OC)c(=O)c3ccccc32)cc1Cl,active: 16.2 µM
17,Cn1c(=O)oc2cc(S(=O)(=O)N3CCCC(C(=O)N4CCN(c5cccc(Cl)c5)CC4)C3)ccc21 (stereo not given),"inconclusive: 0.724 µM [cytotoxic, partial curve]"
18,O=C(CCS(=O)(=O)c1nc(-c2cccs2)cc(C(F)(F)F)n1)Nc1ccc(F)c(Cl)c1,"inconclusive: 22.9 µM [cytotoxic, single point]"
19,Cc1ccc(CN2C(=O)C(O)(c3c(C)[nH]c4ccccc34)c3ccccc32)cc1 (stereo not given),inactive
20,COc1ccc(NC(=O)c2nc(S(=O)(=O)Cc3ccc(C)cc3)ncc2Cl)cc1,"inconclusive: 22.9 µM [cytotoxic, single point]"

# Look-ups from above.
# In Potency, O=C(CCS(=O)(=O)c1nc(-c2cccs2)cc(C(F)(F)F)n1)Nc1ccc(Br)cc1 has inconclusive: 20.4 µM [cytotoxic, single point]
# In Potency, CCN(CC)CCCNC(=O)CSc1c2c(nc3cc(Cl)ccc13)CCCC2 has inconclusive: 22.9 µM [cytotoxic, single point]
# In Potency, O=C(CCS(=O)(=O)c1nc(-c2cccs2)cc(C(F)(F)F)n1)Nc1ccc(F)c(Cl)c1 has inconclusive: 22.9 µM [cytotoxic, single point]

# Reference: PubChem BioAssay AID1508648 (National Center for Advancing Translational Sciences (NCATS), 2021)
